Our source for the binding values is paper PMC11101681.

Protein sequences, listed by entry. Tags and fused reporters are not part of them.
UniProt Q9NVP2: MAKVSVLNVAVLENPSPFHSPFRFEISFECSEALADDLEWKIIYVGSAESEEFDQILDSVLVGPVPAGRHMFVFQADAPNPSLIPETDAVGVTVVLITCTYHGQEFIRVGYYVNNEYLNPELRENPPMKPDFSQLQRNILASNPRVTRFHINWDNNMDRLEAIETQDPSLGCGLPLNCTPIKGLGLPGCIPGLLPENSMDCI
UniProt P39687: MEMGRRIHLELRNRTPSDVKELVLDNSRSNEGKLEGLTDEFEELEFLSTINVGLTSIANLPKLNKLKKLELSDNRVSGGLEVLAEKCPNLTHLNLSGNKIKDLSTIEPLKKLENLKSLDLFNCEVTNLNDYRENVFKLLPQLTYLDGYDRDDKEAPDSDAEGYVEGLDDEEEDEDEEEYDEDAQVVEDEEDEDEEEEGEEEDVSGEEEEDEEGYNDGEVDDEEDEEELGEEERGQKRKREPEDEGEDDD

Where two headings read alike, the source gives them in different places. These are yes or no findings as the source states them, for the method shown. Binding seen in cells or lysates may run through a third protein. Some results given as binding are weak or reduced against the parent protein; the word gives no strength. For some of these results: Sequences can lack the tags named with a protein.

What all share (experiment): proximity ligation; PLA kit on fixed, permeabilised 293FT cells expressing the bait (doxycycline 48 h); antibody pairs Myc or FLAG with ANP32A or ZPR1; untreated or 500 uM hydroxyurea for 24 h; signals per cell counted
In experiment [1] the target is T1, POLE4 (Flag-BIOID2-POLE4) (human (cDNA library of U2OS cells)) (UniProt Q9NR33).
T1 sequence: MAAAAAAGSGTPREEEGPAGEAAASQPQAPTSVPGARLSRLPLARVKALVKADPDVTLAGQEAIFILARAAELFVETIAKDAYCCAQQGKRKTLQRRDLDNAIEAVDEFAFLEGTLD

For experiment [2], the target named is T2, GINS2 (Flag-BIOID2-GINS2) (human (cDNA library of U2OS cells)) (UniProt Q9Y248).
T2 sequence: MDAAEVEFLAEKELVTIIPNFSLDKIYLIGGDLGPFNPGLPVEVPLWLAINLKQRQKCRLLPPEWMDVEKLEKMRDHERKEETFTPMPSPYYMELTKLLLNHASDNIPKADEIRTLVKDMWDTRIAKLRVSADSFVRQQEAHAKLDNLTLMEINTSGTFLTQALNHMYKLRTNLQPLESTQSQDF

Experiment [3] deals with T1, POLE4 (Flag-BIOID2-POLE4) (human (cDNA library of U2OS cells)). This is another data set of the same source.
Experiment [4] has as its target ASF1B (3xMyc-BioID2-ASF1B) (human (cDNA library of U2OS cells)) (UniProt Q9NVP2).

With “Acidic leucine-rich nuclear phosphoprotein 32 family member A (ANP32A) (from UniProt P39687 1-249)”, the binding entry in experiment [1] and in experiment [2] was “binds” each time.

B1: ZPR1 (protein, UniProt O75312 1-459)
chain: MAASGAVEPGPPGAAVAPSPAPAPPPAPDHLFRPISAEDEEQQPTEIESLCMNCYCNGMTRLLLTKIPFFREIIVSSFSCEHCGWNNTEIQSAGRIQDQGVRYTLSVRALEDMNREVVKTDSAATRIPELDFEIPAFSQKGALTTVEGLITRAISGLEQDQPARRANKDATAERIDEFIVKLKELKQVASPFTLIIDDPSGNSFVENPHAPQKDDALVITHYNRTRQQEEMLGLQEEAPAEKPEEEDLRNEVLQFSTNCPECNAPAQTNMKLVQIPHFKEVIIMATNCENCGHRTNEVKSGGAVEPLGTRITLHITDASDMTRDLLKSETCSVEIPELEFELGMAVLGGKFTTLEGLLKDIRELVTKNPFTLGDSSNPGQTERLQEFSQKMDQIIEGNMKAHFIMDDPAGNSYLQNVYAPEDDPEMKVERYKRTFDQNEELGLNDMKTEGYEAGLAPQR
B1: the binding result in experiment [3] and in experiment [4] was “binds” in each case.
